The list shows a part of the results.

Chains of the proteins cited; added tags and fusions are not shown. Lines headed by an entry give the natural chain unless they say otherwise; changes in a name come on top.
UniProt P09543: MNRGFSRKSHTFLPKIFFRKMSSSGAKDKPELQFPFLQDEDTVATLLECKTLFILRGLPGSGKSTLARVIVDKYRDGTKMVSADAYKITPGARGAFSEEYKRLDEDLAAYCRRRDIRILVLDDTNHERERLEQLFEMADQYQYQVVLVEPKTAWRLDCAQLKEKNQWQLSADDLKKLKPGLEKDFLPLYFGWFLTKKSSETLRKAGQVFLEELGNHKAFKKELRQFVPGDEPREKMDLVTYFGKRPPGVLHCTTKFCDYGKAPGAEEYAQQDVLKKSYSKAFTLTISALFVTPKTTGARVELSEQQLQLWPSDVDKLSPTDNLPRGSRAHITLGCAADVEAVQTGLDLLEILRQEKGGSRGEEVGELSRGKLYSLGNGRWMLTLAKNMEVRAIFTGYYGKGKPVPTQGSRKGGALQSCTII
UniProt Q9UHD1: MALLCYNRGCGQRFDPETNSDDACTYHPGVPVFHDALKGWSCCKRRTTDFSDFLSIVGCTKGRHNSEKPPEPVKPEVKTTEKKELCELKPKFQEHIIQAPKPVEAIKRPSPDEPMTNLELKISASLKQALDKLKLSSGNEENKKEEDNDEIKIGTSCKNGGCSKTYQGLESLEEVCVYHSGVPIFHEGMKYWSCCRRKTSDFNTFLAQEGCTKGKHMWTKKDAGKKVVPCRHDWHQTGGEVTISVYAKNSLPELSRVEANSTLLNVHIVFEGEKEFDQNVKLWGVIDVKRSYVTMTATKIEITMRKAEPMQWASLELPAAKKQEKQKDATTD
UniProt P06732: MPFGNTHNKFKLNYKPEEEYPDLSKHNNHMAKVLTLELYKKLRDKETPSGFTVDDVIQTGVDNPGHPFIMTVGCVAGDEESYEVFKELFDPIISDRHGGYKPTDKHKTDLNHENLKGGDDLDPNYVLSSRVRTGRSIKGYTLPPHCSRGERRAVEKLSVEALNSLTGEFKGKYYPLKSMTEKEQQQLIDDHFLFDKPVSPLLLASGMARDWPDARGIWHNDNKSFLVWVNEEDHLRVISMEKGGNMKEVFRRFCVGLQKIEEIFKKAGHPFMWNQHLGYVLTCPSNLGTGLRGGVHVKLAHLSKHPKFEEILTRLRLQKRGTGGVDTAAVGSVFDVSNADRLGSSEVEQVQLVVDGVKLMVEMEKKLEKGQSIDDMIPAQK
UniProt Q8NE01: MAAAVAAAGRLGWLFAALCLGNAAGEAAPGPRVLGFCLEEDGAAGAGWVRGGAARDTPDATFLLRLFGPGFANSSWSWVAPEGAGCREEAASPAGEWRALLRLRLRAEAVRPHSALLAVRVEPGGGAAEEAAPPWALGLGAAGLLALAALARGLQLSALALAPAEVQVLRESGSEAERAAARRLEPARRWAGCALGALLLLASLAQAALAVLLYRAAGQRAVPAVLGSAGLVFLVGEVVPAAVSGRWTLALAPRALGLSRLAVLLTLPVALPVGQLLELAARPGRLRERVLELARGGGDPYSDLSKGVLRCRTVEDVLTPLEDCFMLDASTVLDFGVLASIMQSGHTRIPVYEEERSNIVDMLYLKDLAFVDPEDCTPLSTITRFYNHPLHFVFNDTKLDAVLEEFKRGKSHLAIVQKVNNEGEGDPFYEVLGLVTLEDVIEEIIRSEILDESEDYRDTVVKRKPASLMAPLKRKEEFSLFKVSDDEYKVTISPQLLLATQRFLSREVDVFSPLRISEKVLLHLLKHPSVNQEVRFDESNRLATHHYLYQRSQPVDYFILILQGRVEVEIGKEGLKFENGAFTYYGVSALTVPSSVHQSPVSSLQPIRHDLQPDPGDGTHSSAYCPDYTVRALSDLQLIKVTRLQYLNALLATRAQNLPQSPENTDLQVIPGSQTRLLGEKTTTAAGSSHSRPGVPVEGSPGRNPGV
UniProt Q6P4Q7: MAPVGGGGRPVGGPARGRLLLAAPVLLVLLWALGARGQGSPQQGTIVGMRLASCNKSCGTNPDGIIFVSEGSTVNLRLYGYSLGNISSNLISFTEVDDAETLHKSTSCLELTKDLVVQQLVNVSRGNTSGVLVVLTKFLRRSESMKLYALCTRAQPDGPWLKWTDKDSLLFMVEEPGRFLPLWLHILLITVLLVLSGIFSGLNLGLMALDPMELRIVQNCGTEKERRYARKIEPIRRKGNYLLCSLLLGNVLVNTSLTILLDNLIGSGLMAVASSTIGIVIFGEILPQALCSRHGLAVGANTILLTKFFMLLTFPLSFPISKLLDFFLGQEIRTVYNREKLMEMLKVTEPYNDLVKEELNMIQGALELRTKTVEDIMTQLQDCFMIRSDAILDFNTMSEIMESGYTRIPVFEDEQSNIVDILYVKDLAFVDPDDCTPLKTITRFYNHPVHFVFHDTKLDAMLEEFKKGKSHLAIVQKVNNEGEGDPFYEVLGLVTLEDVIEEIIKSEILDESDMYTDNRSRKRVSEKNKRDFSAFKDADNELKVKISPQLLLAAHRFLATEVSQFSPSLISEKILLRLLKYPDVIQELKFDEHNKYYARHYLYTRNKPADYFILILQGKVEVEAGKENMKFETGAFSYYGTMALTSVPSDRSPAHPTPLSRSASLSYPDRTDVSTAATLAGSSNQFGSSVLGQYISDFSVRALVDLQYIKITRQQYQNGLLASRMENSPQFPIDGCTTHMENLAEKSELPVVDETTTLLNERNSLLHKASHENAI
UniProt Q8NCH0: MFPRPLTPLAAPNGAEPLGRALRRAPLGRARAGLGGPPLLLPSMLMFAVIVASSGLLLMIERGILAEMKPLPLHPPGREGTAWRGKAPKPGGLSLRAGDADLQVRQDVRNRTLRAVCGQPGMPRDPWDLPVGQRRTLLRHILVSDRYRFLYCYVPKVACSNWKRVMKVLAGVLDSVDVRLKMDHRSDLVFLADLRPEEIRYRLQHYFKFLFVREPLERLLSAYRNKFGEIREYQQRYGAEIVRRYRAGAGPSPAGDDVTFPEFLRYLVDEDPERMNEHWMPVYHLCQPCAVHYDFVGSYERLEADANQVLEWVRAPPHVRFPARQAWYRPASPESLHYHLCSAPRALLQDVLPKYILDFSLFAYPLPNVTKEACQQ
UniProt Q14008: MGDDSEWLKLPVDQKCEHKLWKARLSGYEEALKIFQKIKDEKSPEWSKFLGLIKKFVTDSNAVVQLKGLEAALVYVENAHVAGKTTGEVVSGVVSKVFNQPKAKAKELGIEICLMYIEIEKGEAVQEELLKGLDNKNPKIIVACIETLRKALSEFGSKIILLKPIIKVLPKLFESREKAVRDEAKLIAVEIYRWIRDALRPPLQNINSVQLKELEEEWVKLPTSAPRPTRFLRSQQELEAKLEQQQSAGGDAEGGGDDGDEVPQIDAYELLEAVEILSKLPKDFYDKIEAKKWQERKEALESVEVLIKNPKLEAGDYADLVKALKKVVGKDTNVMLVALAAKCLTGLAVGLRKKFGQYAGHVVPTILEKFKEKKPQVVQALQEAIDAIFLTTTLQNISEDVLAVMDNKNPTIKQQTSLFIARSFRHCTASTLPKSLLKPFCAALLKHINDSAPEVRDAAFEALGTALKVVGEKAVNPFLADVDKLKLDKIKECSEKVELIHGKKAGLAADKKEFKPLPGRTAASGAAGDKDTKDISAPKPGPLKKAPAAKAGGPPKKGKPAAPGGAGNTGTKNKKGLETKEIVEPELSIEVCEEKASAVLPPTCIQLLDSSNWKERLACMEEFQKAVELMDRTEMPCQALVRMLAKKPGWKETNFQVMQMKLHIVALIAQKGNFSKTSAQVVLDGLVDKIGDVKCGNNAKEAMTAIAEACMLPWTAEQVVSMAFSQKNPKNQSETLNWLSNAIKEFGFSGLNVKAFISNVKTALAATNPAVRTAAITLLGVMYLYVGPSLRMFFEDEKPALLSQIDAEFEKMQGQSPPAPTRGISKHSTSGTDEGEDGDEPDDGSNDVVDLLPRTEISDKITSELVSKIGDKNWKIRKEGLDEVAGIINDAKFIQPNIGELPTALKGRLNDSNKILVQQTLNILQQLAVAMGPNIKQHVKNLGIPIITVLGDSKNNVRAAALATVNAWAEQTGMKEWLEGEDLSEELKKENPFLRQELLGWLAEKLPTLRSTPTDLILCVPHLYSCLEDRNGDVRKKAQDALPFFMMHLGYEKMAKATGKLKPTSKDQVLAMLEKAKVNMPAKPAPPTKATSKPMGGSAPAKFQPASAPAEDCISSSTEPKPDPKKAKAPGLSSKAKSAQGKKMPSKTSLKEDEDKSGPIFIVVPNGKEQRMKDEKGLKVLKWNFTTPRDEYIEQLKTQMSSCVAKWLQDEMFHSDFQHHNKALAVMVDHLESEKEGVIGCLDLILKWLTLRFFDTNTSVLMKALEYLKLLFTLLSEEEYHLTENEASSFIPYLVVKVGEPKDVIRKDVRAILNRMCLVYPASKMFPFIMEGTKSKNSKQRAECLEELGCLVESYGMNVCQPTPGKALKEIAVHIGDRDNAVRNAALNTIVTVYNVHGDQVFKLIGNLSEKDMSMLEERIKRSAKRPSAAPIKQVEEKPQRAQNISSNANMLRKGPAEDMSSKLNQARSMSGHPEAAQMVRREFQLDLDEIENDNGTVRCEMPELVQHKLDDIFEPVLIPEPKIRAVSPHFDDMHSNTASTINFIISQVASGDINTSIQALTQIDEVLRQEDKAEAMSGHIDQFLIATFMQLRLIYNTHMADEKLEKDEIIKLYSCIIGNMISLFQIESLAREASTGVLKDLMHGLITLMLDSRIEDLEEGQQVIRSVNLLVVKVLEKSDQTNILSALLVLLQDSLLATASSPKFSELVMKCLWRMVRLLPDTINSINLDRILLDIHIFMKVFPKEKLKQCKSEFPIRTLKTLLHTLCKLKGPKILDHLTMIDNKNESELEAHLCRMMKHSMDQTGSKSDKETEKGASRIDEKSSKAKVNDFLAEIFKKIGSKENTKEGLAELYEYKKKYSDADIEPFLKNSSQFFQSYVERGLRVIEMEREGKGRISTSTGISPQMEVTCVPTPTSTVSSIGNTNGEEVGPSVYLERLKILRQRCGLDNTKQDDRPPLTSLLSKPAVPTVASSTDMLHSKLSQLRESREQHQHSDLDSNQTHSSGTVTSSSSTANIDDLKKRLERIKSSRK
UniProt Q8N5K1: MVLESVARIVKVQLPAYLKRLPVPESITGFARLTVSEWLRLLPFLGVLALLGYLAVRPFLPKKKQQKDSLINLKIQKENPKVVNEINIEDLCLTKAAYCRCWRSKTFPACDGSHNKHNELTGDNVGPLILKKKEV
UniProt Q9BT09: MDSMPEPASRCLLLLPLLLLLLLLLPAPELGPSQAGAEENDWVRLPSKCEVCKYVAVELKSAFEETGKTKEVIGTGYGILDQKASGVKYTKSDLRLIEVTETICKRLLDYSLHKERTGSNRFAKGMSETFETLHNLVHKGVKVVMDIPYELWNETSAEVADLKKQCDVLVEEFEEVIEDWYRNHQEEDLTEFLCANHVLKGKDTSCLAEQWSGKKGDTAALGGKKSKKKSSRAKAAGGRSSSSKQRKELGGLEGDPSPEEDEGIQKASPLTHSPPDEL
UniProt Q9NZ45: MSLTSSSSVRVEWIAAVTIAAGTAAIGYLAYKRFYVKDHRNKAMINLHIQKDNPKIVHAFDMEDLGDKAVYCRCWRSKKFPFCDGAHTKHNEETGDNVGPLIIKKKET
UniProt O75175, whole entry, looked up: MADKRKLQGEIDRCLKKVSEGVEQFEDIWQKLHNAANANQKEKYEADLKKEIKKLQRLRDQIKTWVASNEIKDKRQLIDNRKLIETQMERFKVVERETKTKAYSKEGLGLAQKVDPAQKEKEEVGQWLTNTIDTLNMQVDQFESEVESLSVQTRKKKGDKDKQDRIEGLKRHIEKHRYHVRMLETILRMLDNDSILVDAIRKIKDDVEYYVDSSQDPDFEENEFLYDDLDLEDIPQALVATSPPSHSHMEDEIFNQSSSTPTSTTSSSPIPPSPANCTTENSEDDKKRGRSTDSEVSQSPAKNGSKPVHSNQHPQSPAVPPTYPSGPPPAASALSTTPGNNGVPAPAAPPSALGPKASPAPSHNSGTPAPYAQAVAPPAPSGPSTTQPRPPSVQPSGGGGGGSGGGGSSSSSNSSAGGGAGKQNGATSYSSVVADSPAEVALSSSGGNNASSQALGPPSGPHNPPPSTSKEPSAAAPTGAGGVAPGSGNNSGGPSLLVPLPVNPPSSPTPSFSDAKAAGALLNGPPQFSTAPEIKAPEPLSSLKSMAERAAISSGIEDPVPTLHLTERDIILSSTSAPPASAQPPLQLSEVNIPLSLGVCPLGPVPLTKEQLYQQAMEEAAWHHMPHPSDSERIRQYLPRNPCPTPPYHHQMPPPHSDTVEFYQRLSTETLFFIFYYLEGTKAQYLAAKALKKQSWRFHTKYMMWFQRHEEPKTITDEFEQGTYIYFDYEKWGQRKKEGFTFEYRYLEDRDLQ
UniProt Q96BR5: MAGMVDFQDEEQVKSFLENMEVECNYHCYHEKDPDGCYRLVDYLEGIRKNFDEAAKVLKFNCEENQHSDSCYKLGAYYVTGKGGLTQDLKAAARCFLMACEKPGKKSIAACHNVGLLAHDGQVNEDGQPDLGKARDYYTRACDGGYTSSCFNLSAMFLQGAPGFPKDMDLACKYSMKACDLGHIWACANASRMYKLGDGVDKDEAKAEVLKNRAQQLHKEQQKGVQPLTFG

Compound in the first assay: C#Cc1cccc(Nc2ncnc3cc(OCCOC)c(OCCOC)cc23)c1 [erlotinib]
The assay can be described thus: log2 fold change, soluble protein after heating vs DMSO (PISA); higher = thermal stabilisation; K562 cells, 10 uM, 30 min; active = over 0.2 and 3.5 SD of the protein, either way, in both replicates (recomputed). In a few lines: (§1)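 Soluble protein was quantified by TMTpro 16plex LC-MS/MS after channel sums were equalised. It was obtained as the supernatant after 21,000xg for 90 min from pooled aliquots of K562 cells (2×10^6 cells/mL, 10 μM compound, 30 min) heated for 3 min across 48°C-58°C and extracted in PBS with 0.5% NP-40 at 4°C. Thermal stability values are relative to control samples and come from duplicates. They are given as log2 fold changes.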
CNP (UniProt P09543): the log2 fold change was inactive: 0.005.
On the same count and under the same terms, with CHORDC1 (UniProt Q9UHD1) the figure was inactive: -0.056; with CKM (UniProt P06732), inactive: -0.024.
The same measure, in the same setting: then CNNM3 (UniProt Q8NE01), with inactive: 0.047; and CNNM4 (UniProt Q6P4Q7), with inactive: 0.01; and CHST14 (UniProt Q8NCH0), with inactive: 0.085.
The same measure, in the same setting: then CKAP5 (UniProt Q14008), with inactive: 0.04; and CISD2 (UniProt Q8N5K1), with inactive: -0.016.
CKMT1A (UniProt P12532): the log2 fold change is inactive: -0.007.

Compound in the next assay: C/C(=N\NC(=O)C1=CC(=CC=C1)S(=O)(=O)N2CCOCC2)/C3=C(C=CC(=C3)Cl)O
The description is as above. In a few lines:
as §1
As for CMC2 (UniProt Q9NRP2), the log2 fold change is inactive: -0.013.
Still for that read-out and setting: with CMTM6 (UniProt Q9NX76) the figure was inactive: 0.139; with CNPY3 (UniProt Q9BT09), inactive: -0.021.
Still for that read-out and setting: with CIB1 isoform 2 (UniProt Q99828) the figure was inactive: 0.025; with CNST (UniProt Q6PJW8), inactive: -0.007.
The same measure, in the same setting: then CIAO3 (UniProt Q9H6Q4), with inactive: 0.082.
With CNOT11 (UniProt Q9UKZ1), the log2 fold change is inactive: -0.009.
On the same count and under the same terms, then COA1 (UniProt Q9GZY4), with inactive: -0.029.
On the same count and under the same terms, with CNPY2 (UniProt Q9Y2B0) the figure was inactive: 0.05; with CISD1 (UniProt Q9NZ45), inactive: -0.014; with CNOT6L (UniProt Q96LI5), inactive: -0.146.
On to CNOT10 isoform 6 (UniProt Q9H9A5), for which the log2 fold change was inactive: 0.014.
Still for that read-out and setting: then CNOT3 (UniProt O75175), with inactive: 0.105.
On the same count and under the same terms, then COA7 (UniProt Q96BR5), with inactive: -0.001; and CNTNAP4 (UniProt Q9C0A0), with inactive: -0.075; and CMC1 (UniProt Q7Z7K0), with inactive: -0.147.
The same measure, in the same setting: then CHMP7 (UniProt Q8WUX9), with inactive: 0.046; and CISD3 (UniProt P0C7P0), with inactive: 0.038.
On to CHURC1 isoform 2 (UniProt Q8WUH1), for which the log2 fold change is inactive: 0.047.
On the same count and under the same terms, with CNOT9 isoform 2 (UniProt Q92600) the figure was inactive: 0.011.
Same read-out and setting: then CKMT2 (UniProt P17540), with inactive: -0.024.
Same read-out and setting: with COL1A2 (UniProt P08123) the figure was inactive: -0.106; with CMAS (UniProt Q8NFW8), inactive: -0.045; with CNP (UniProt P09543), inactive: 0.062.
On to CHORDC1 (UniProt Q9UHD1), for which the log2 fold change is inactive: 0.04.
On the same count and under the same terms, then CKM (UniProt P06732), with inactive: 0.034.
The same measure, in the same setting: then CNNM3 (UniProt Q8NE01), with inactive: -0.002; and CNNM4 (UniProt Q6P4Q7), with inactive: 0.095.
As to CHST14 (UniProt Q8NCH0), the log2 fold change is inactive: 0.052.
For the target CKAP5 (UniProt Q14008), the log2 fold change was inactive: 0.097.
The same measure, in the same setting: then CISD2 (UniProt Q8N5K1), with inactive: -0.031.
The same measure, in the same setting: with CKMT1A (UniProt P12532) the figure was inactive: -0.04.

Compound in a further assay: C1=CC(=C(C=C1Cl)C2=NC3=NC=CN=C3C(=N2)NC4=CC=NC=C4)F
The description is as above. In a few lines: as §1
On to CMC2 (UniProt Q9NRP2), for which the log2 fold change is inactive: 0.055.
On the same count and under the same terms, with CMTM6 (UniProt Q9NX76) the figure was inactive: 0.095; with CNPY3 (UniProt Q9BT09), inactive: -0.001.
On the same count and under the same terms, with CIB1 isoform 2 (UniProt Q99828) the figure was inactive: 0.148.
Still for that read-out and setting: then CNST (UniProt Q6PJW8), with inactive: 0.107.
Take CIAO3 (UniProt Q9H6Q4): the log2 fold change is inactive: 0.01.
Still for that read-out and setting: then CNOT11 (UniProt Q9UKZ1), with inactive: 0.037.
With COA1 (UniProt Q9GZY4), the log2 fold change is inactive: 0.01.
Same read-out and setting: then CNPY2 (UniProt Q9Y2B0), with inactive: 0.034; and CISD1 (UniProt Q9NZ45), with inactive: 0.024; and CNOT6L (UniProt Q96LI5), with inactive: -0.021.
Consider CNOT10 isoform 6 (UniProt Q9H9A5), for which the log2 fold change was inactive: -0.035.
On the same count and under the same terms, with CNOT3 (UniProt O75175) the figure was inactive: 0.02.
With COA7 (UniProt Q96BR5), the log2 fold change was inactive: 0.072.
On the same count and under the same terms, with CNTNAP4 (UniProt Q9C0A0) the figure was inactive: -0.205; with CMC1 (UniProt Q7Z7K0), inactive: 0.064; with CHMP7 (UniProt Q8WUX9), inactive: 0.054.
Still for that read-out and setting: then CISD3 (UniProt P0C7P0), with inactive: 0.044; and CHURC1 isoform 2 (UniProt Q8WUH1), with inactive: 0.025.
With CNOT9 isoform 2 (UniProt Q92600), the log2 fold change is inactive: -0.03.
Same read-out and setting: then CKMT2 (UniProt P17540), with inactive: -0.087; and COL1A2 (UniProt P08123), with inactive: 0.055.
On the same count and under the same terms, with CMAS (UniProt Q8NFW8) the figure was inactive: -0.218; with CNP (UniProt P09543), inactive: 0.028.
Still for that read-out and setting: with CHORDC1 (UniProt Q9UHD1) the figure was inactive: 0.097.
As for CKM (UniProt P06732), the log2 fold change is inactive: 0.073.
Still for that read-out and setting: with CNNM3 (UniProt Q8NE01) the figure was inactive: -0.012.
The same measure, in the same setting: then CNNM4 (UniProt Q6P4Q7), with inactive: -0.004; and CHST14 (UniProt Q8NCH0), with inactive: -0.001; and CKAP5 (UniProt Q14008), with inactive: -0.043.
The same measure, in the same setting: with CISD2 (UniProt Q8N5K1) the figure was inactive: 0.04; with CKMT1A (UniProt P12532), inactive: -0.03.
